From patent US7455959B2, “Photographic element containing a speed-enhancing compound” (Eastman Kodak Company, priority 2003, dated 2008)

What was measured:
[1] = Photographic speed of multilayer colour negative film coatings, stepped neutral exposure, C-41 process; conditions: test compound at 0.0806 mmol/m^2 in Part A of Layer 9 (fast magenta layer), dispersed in N,N-dibutyllauramide, difference in speed versus check
Method: (§1) Surfactants, coating aids, emulsion addenda (including 4-hydroxy-6-methyl-1,3,3a,7-tetra-azaindene), sequestrants, thickeners, lubricants, matte and tinting dyes were added to the appropriate layers as is common in the art. Formulae for the identified compounds are provided at the end of these examples.
Layer 2 (Slow cyan layer): a blend of two red-sensitized (all with a mixture of RSD-1 and RSD-2) tabular silver iodobromide emulsions: (i) 0.81×0.11 μm, 4.5 mol % I at 0.400, (ii) 0.62×0.111 μm, 4.1 mol % iodide at 0.175; cyan dye-forming couplers C-1 at 0.248 and C-2 at 0.236; bleach-accelerator releasing coupler B-1 at 0.086; image-modifier DIR-1 at 0.032; O×DS-1 at 0.010 and gelatin at 1.08. Layer 3 (Mid cyan layer): a red-sensitized (with a mixture of RSD-1 and RSD-2) iodobromide tabular emulsion (1.44×0.13 μm, 3.7 mol % I) at 0.572; C-1 at 0.265; C-2 at 0.103; B-1 at 0.011; DIR-2 at 0.043; masking coupler MC-1 at 0.022 and gelatin at 1.08. Layer 4 (Fast cyan layer): a red-sensitized (with a mixture of RSD-1, RSD-2 and RSD-3) iodobromide tabular emulsion (2.41×0.13 μm, 3.7 mol % I) at 1.286; C-1 at 0.163; DIR-2 at 0.0.054; B-1 at 0.008 and gelatin at 1.08. Layer 5 (Ultra-fast cyan layer): a red-sensitized (with a mixture of RSD-1, RSD-2 and RSD-3) iodobromide tabular emulsion (3.87×0.13 μm, 3.7 mol % I) at 1.180; C-2 at 0.175; DIR-3 at 0.060; DIR-4 at 0.001 and gelatin at 1.08. Layer 6 (Interlayer): ILS-1 at 0.075 and gelatin at 1.08. Layer 7 (Slow magenta layer): a blend of two green-sensitized (both with a mixture of GSD-1 and GSD-2) silver iodobromide tabular emulsions: (i) 1.17×0.12 μm, 4.5 mol % iodide at 0.156 and (ii) 0.62×0.111 μm, 2.6 mol % iodide at 0.573; magenta dye-forming coupler M−1 at 0.300; MC-2 at 0.090, DIR-5 at 0.032, ILS-1 at 0.011 and gelatin at 1.400. Layer 8 (Mid magenta layer): a blend of two green-sensitized (both with a mixture of GSD-1 and GSD-2) silver iodobromide tabular emulsions: (i) 2.46×0.13 μm, 3.7 mol % iodide at 0.534 and (ii) 1.45×0.13 μm, 3.7 mol % iodide at 0.370; M-1 at 0.089; MC-2 at 0.086; DIR-5 at 0.025, ILS-1 at 0.012 and gelatin at 1.438. Layer 9 (Fast magenta layer): two parts mixed together at a 1:1 ratio just prior to coating; Part A (dispersion melt): M-1 at 0.104; DIR-5 at 0.011; ILS-1 at 0.014 and gelatin at 0.420 and Part B (emulsion melt): a green-sensitized (with a mixture of GSD-1 and GSD-2) silver iodobromide tabular emulsion (2.90×0.13 μm, 3.7 mol % iodide) at 1.240; MC-2 at 0.021; DIR-6 at 0.003 and gelatin at 1.076. Layer 10 (Interlayer): ILS-1 at 0.182 and gelatin at 0.700. Layer 11 (Slow yellow layer): a blend of three blue-sensitized (all with BSD-1 and BSD-2) tabular silver iodobromide emulsions (i) 2.41×0.1 μm, 2.0 mol % I at 0.402, (ii) 1.02×0.137 μm, 2.0 mol % I at 0.136, (iii) 0.62×0.111 μm, 2.6 mol % I at 0.505; yellow dye-forming coupler Y-1 at 0.850; DIR-1 at 0.022; DIR-7 at 0.038; B-1 at 0.009 and gelatin at 1.90. Layer 12 (Fast yellow layer): a blue-sensitized (with BSD-1 and BSD-2) tabular silver iodobromide emulsion, 3.72×0.131 μm, 3.7 mol % I at 0.070 and a blue-sensitized (with BSD-1) 3-D silver iodobromide emulsion, 1.21 μm diameter), 9.7 mol % I at 1.055; Y-1 at 0.312; DIR-7 at 0.065; B-1 at 0.011, stabiliser S-1 at 0.008 and gelatin at 1.280. Layer 13 (UV Filter Layer): silver bromide Lippman emulsion at 0.215; UV-1 and UV-2 both at 0.108 and gelatin at 0.700. […]

[2] = Granularity of the green layer in a neutral exposure by the RMS method; conditions: Table 2, 48 micrometer aperture, density 1.2 log exposure units from the speed point, check = 21
Method: as §1
Layer 2 (Slow cyan layer): a blend of two red-sensitized (all with a mixture of RSD-1 and RSD-2) tabular silver iodobromide emulsions: (i) 0.81×0.11 μm, 4.5 mol % I at 0.400, (ii) 0.62×0.111 μm, 4.1 mol % iodide at 0.175; cyan dye-forming couplers C-1 at 0.248 and C-2 at 0.236; bleach-accelerator releasing coupler B-1 at 0.086; image-modifier DIR-1 at 0.032; O×DS-1 at 0.010 and gelatin at 1.08. Layer 3 (Mid cyan layer): a red-sensitized (with a mixture of RSD-1 and RSD-2) iodobromide tabular emulsion (1.44×0.13 μm, 3.7 mol % I) at 0.572; C-1 at 0.265; C-2 at 0.103; B-1 at 0.011; DIR-2 at 0.043; masking coupler MC-1 at 0.022 and gelatin at 1.08. Layer 4 (Fast cyan layer): a red-sensitized (with a mixture of RSD-1, RSD-2 and RSD-3) iodobromide tabular emulsion (2.41×0.13 μm, 3.7 mol % I) at 1.286; C-1 at 0.163; DIR-2 at 0.0.054; B-1 at 0.008 and gelatin at 1.08. Layer 5 (Ultra-fast cyan layer): a red-sensitized (with a mixture of RSD-1, RSD-2 and RSD-3) iodobromide tabular emulsion (3.87×0.13 μm, 3.7 mol % I) at 1.180; C-2 at 0.175; DIR-3 at 0.060; DIR-4 at 0.001 and gelatin at 1.08. Layer 6 (Interlayer): ILS-1 at 0.075 and gelatin at 1.08. Layer 7 (Slow magenta layer): a blend of two green-sensitized (both with a mixture of GSD-1 and GSD-2) silver iodobromide tabular emulsions: (i) 1.17×0.12 μm, 4.5 mol % iodide at 0.156 and (ii) 0.62×0.111 μm, 2.6 mol % iodide at 0.573; magenta dye-forming coupler M−1 at 0.300; MC-2 at 0.090, DIR-5 at 0.032, ILS-1 at 0.011 and gelatin at 1.400. […]

SMILES	Δ Speed ([1]; Table 1)	Δ Speed ([1]; Table 1, listed as CCl)	Granularity × 10^3 [2]	Δ Speed ([1]; Table 2)
CCC(Oc1ccc(C(C)(C)CC)cc1C(C)(C)CC)C(=O)Nc1ccc2[nH]cnc2c1 (centres unmarked) [CC1, reference compound]	−0.23 stops	shows a speed loss	–	–
CCCCCCCCCCCCn1cnc(-c2ccccc2)c1-c1ccccc1 [CC2, reference compound]	–	–	19	–
CCCCCCCCCCCCCCCc1cccc(OC(CC)C(=O)Nc2ncc[nH]2)c1 (centres unmarked) [SGA1]	0.07 stops	–	–	–
CCC(C)(C)c1ccc(OCC(=O)Nc2nc(C#N)c(C#N)[nH]2)c(C(C)(C)CC)c1 [SGA2]	–	–	19	0.13 stops
c1ccc(-c2nc(-c3ccco3)[nH]c2-c2ccccc2)cc1 [SGA21]	–	–	19	0.07 stops
